Measured values taken from publication PMC3807668, “Structure of the CRISPR Interference Complex CSM Reveals Key Similarities with Cascade” (Molecular Cell, 2013).
No constants are given. Whether binding was seen depends on the method and setting. Binding seen in cells or lysates may run through a third protein. A yes stands for co-enrichment or nearness to the bait. Other partners may have been found. Where a sequence is shown, tags or fusion partners need not be part of it.

T1: Sso1431 with C-terminal tandem tag (Strep and 10x His) (S. solfataricus) (UniProt Q97YA1)
T1 sequence (chain, methylation; phosphorylation (residues not printed)): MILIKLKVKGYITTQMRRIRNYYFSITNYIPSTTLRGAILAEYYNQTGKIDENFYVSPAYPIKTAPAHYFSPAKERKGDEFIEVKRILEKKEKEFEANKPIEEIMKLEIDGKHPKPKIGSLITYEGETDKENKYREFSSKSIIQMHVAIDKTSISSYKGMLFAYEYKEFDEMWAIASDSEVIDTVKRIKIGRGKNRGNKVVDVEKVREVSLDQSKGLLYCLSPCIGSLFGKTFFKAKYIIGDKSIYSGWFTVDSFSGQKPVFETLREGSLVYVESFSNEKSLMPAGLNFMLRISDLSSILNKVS

B1: Sso1426 (natural protein, UniProt Q97YA6 1-281, looked up)
chain: MVLMVNYTFIDKRVIKRTTMIEGDVETVSPLKIGGGKDNFDPSSLAKDSILKDVEGRPIIPGSSWKGIFRSTGERILRLRNIEVCSGIGKDYCLNNNRKERDFNSALKENVDQALEIFWDYTCLNCKVFGTMSVIGAVRFLDSLPISYSLNTRSMIAISRTEGAVARRALVTVEYVDVGSKFSFKMMGYNLPNYAIGYLITIMKNIHDGFTQVGGHKSRGFGFVKFGKVKFTDLGEKRIGDEDIQVKDVGDLVEGNGDEFFGRMKPFMEAFNNAKIPYPKK
modifications: methylation (residues not given)
notes: Sso1426, RAMP subunit assigned to the Csm3 (Cas7-like) family, CSM complex of S. solfataricus; four copies in the CSM complex; its mass lies within 70 Da of that of Sso1427; also called Csm3; Cas7 family RAMP subunit; source: endogenous, S. solfataricus PH1-16; co-purified with the tagged subunit (HisTrap, monoQ, gel filtration)
B2: Sso1427 (natural protein, UniProt Q97YA5 1-275, looked up)
chain: MQRSPIRRSNYTPRNEKGLEGVIELQLNVVSDYLHVGSGKYDVEVMRSVSDVKRLVEDYLSGGNKRIPNNVDQYFSMVAFLMVRNKDNVVIPGSTIKGMVRSRLELSVPGSCYIVTGHSTSSSAVYKRIFNPDPNRGSDRFDVNKFPQVCPVCDLLGNMGLASRVSLSDFVMTSGKVDYVNVKGRDYEVVTKGSIFAGKVLYKSLKPVEIGMLLYGFGFVKDCNGSKVMLLGRFKFSDKRFGRVKFSLKTPIADCNKLVSDFVKQFNPRYINEEW
modifications: methylation (residues not given)
notes: Sso1427, RAMP subunit of the CSM complex of S. solfataricus; its mass lies within 70 Da of that of Sso1426; also called RAMP subunit; Csm3 paralog; source: endogenous, S. solfataricus PH1-16; co-purified with the tagged subunit (HisTrap, monoQ, gel filtration)
B3: Sso1430 (natural protein, UniProt Q97YA2 1-206, looked up)
chain: MIPIKVSMRNLSSLTIAGGSTISSIDIPLNPLGVPPSTIKGTMRTAVHNLLPNGYTSCGEVEPESIREAHKNGVCDVCKLFGYPDSLTGCFTIDVSKTDYRTSYITRVSIDDKTQRAKEGSLFTQQIILPNSDISFTVYYNCNDERLFKLLLYSILDLRYWRLGRNTMIDVKVNNVEEICKSVKCDEEINGILNQLSRYLWEAENK
modifications: methylation (residues not given)
notes: Sso1430, subunit of the CSM complex of S. solfataricus; also called RAMP subunit; Csm3 paralog; source: endogenous, S. solfataricus PH1-16; co-purified with the tagged subunit (HisTrap, monoQ, gel filtration)
B4: Sso1432 (natural protein, UniProt Q97YA0 1-252, looked up)
chain: MVIQVFRLNFRLRTGFRVGGGQEVGDNVIRQLRIGVEGVMIPASSWKGMFRRVSEIVLNSEDHFEEHSKKEVDTRTINALLKSDEKFRRIAISKVGKEVITQNGINVDKLDSESLSDLRRIYNEYNCPIERLYGSNYFAGGITISDSVIPNASIMERTHVTIERKSKKASEKHLFSEEIIDAEKIEVKVIVRNEFELWKNSLKLLREIGYFIGGSKSRGIGYIVLDEKESEYAVINNFSETPKFSELKRYLS
modifications: methylation (residues not given)
notes: Sso1432, RAMP subunit of the CSM complex of S. solfataricus; also called RAMP subunit; Csm3 paralog; source: endogenous, S. solfataricus PH1-16; co-purified with the tagged subunit (HisTrap, monoQ, gel filtration)
B5: Sso1424 (natural protein, UniProt Q97YA8 16-139, looked up)
chain: SSQDLLDIATRIAISAIKPKPKSNKPEPYVDSSTINSLLSFLQSRRNVNELLLYIMRQAGRDEIDEETGKLLLASLKDRELKDAVNLLGYVKWVYDTLTGLKVNYNNVKGVKTFKELVNILSKV
modifications: acetylated N-terminal Ser-16; seven methylated lysines (positions not given)
notes: Sso1424, small subunit (probably Csm2) of the CSM complex of S. solfataricus; three copies in the CSM complex; also called small subunit; Csm2; source: endogenous, S. solfataricus PH1-16; co-purified with the tagged subunit (HisTrap, monoQ, gel filtration)
B6: Sso1425 (natural protein, UniProt Q97YA7 1-250, looked up)
chain: MKMSCMDLDVITTVVKIEGKLRNETLLRVGKGKTQDFAEATDNPIIKYRDRPLIPGSSLKGAFRSLVESYTKSLNDSKYYVCDLDDNSCVSCEEKKKDNGIVEGRYCIPCILFGFKDLASRVYILDAIAEKYSISQRTMVAINRVFGGQMPGHLYTLDYVDPGSEFSFMMMIYNLNLIEGEKDWKAKSVEALKFLLATLVREGIFVGARKSVGYGLIKLVDAKVSLYKAPDHLVSPVIVKKLEEVIGTNG
modifications: methylation; phosphorylation (residues not given)
notes: Sso1425, RAMP subunit of the CSM complex of S. solfataricus; also called RAMP subunit; Csm3 paralog; source: endogenous, S. solfataricus PH1-16; co-purified with the tagged subunit (HisTrap, monoQ, gel filtration)

Target: T1, Sso1431 with C-terminal tandem tag (Strep and 10x His) (S. solfataricus)
Test: affinity purification with mass spectrometry; C-terminal Strep-10x His tag on Sso1428 or Sso1431 expressed in S. solfataricus; HisTrap, monoQ and S500 gel filtration; single peak in the last step; subunits seen by SDS-PAGE and MS

| Binder | binding |
| --- | --- |
| B1 | binds |
| B2 | binds |
| B3 | binds |
| B4 | binds |
| B5 | binds |
| B6 | binds |
